Out of some 320,000 compounds screened, about 2,100 (0.66%) were called active. The shares of active, inactive and inconclusive entries below differ from those in the screen. Calls follow the shape of the dose curve; as a rule, active = well fitted inhibition curve with a large enough effect in the signal ratio, with a control signal flat (not every such curve was filed as active); inconclusive = small, poorly fitted or top-dose-only effect, or effect the other way, or a change in a side signal; inactive = flat fitted curve, though single readings scatter; the % refers to the signal ratio. Potencies beside an inconclusive call are fits to weak or partial responses and may not hold up.
test: qHTS Assay for Lipid Storage Modulators in Drosophila S3 Cells; details: BODIPY lipid droplet fluorescence, 18-24 h, cells fed with added oleic acid; lipid storage change, negative = inhibition: at 46.1 µM (top of the series) unless noted
Outline: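 Laser-scanning cytometry quantifies lipid droplet accumulation (500–530 nm total intensity; droplet/cell object ratio) in oleic acid-fed (400 uM added) Drosophila S3 cells treated with a concentration series. 20 uM Triacsin C defined 100% inhibition.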
% is scaled to controls: 0 for no effect and ±100 for the full control effect; potency is read from the fitted curve at half-maximal effect.

Q: For `CC1(C)Cc2nc3oc4c(N(CCO)Cc5ccccc5)ncnc4c3cc2CO1`, which lipid storage change, negative = inhibition is on record?
A: inconclusive: 15.6%

Q: With `CCC(C)NC(=O)c1cc(-c2ccc3c(c2)OCO3)on1` (configuration not stated) as the molecule, how does the Potency read?
A: inconclusive: 4.61 µM [activator, full curve, poor fit]

Q: For `Cc1ccc(NC(=O)c2ccc(S(=O)(=O)N3CCOCC3)cc2)cc1`, which Potency is on record?
A: inconclusive: 5.8 µM [activator, partial curve]

Q: For `O=C(NCCC1=CCCCC1)C1CCN(S(=O)(=O)c2ccc(-n3cnnn3)cc2)CC1`, which lipid storage change, negative = inhibition is on record?
A: inconclusive: 4.85%

Q: Which Potency does the source give for `S=C(Nc1ccc(Cl)cc1Cl)N1CCCC1` here?
A: inconclusive: 0.103 µM [falling, full curve, poor fit]

Q: For `CCOC(=O)N1CCC(O)(c2cc(C)c(C)cc2C)CC1`, which lipid storage change, negative = inhibition is on record?
A: inconclusive: -14.3%

Q: For `COc1nc(N/N=C/c2ccc(-c3cccc([N+](=O)[O-])c3)o2)nc(N2CCOCC2)n1`, which “lipid storage change, negative = inhibition” value is on record?
A: inactive: 7.42%

Q: For `NC1=NC(=O)C(Cc2ccc(F)cc2)S1` (configuration not stated), which Potency is on record?
A: inconclusive: 29.1 µM [activator, single point]

Q: With `Cc1cc(=O)oc2cc(NC(=O)c3cc(F)ccc3F)ccc12` as the molecule, how does the Potency read?
A: inconclusive: 18.4 µM [activator, single point]

Q: For `COC(=O)c1[nH]c2ccccc2c1NC(=O)CN1CCN(c2cccc(OC)c2)C(C)C1` (configuration not stated), which Potency is on record?
A: inconclusive: 1.3 µM [activator, partial curve]

Q: With `O=C(CCNC(=O)C1CCN(S(=O)(=O)c2ccc(F)cc2)CC1)NCc1cccnc1` as the molecule, how does the Potency read?
A: inconclusive: 0.58 µM [activator, full curve]

Q: For `CN(C)C(CNC(=O)/C=C/c1cccc(Cl)c1)c1ccccc1` (configuration not stated), which lipid storage change, negative = inhibition is on record?
A: inconclusive: -28.3%

Q: Which “outcome” value does the source give for `O=C(CCCN1C(=O)/C(=C/c2ccccc2)SC1=S)N1CCOCC1` here?
A: inactive [at 46.1 µM]

Q: For `O=C(Nc1ccccc1N1CCN(C(=O)c2ccccc2)CC1)c1ccc(Br)o1`, which Potency is on record?
A: inconclusive: 6.51 µM [falling, single point]

Q: With `CCCCCN1C=CC(=C2C(=O)c3ccccc3C2=O)C=C1` as the molecule, how does the Potency read?
A: inconclusive: 6.51 µM [falling, single point]

Q: Which lipid storage change, negative = inhibition does the source give for `CC1(C)CC(=O)C2=C(C1)NCN(Cc1ccccc1)C2` here?
A: inconclusive: -142%

Q: With `N#Cc1ncc(-c2ccc3c(c2)OCCOCCOCCOCCO3)nc1C#N` as the molecule, how does the Potency read?
A: inconclusive: 14.6 µM [falling, partial curve, poor fit]

Q: For `Cn1c(=O)c2c(nc(OCC3COC(C)(C)O3)n2Cc2ccccc2F)n(C)c1=O` (configuration not stated), which lipid storage change, negative = inhibition is on record?
A: inconclusive: -11.1%

Q: With `COc1ccccc1-c1nc(-c2ccccc2)[nH]c(=O)c1C#N` as the molecule, how does the lipid storage change, negative = inhibition read?
A: inconclusive: 22.2%

Q: Which lipid storage change, negative = inhibition does the source give for `Fc1ccc(NC(=S)NCCc2ccc(Cl)cc2)cc1` here?
A: inconclusive: 11.7%

Q: With `COc1ccc(S(=O)(=O)NCCOc2ccc(Cl)cc2)cc1` as the molecule, how does the lipid storage change, negative = inhibition read?
A: inconclusive: -24.5%

Q: With `COC(=O)C1=C(C)N(Cc2ccccc2)C(=NCc2cccc(Cl)c2)N[C@H]1c1cccc(F)c1` as the molecule, how does the Potency read?
A: active: 20.6 µM

Q: Which Potency does the source give for `COc1cccc(N2C(=NC(=O)CCC3CCCC3)SC3CS(=O)(=O)CC32)c1` (configuration not stated) here?
A: active: 11.6 µM

Q: Which Potency does the source give for `Cc1noc(N)c1C(=O)Nc1ccc(F)c(Cl)c1` here?
A: inconclusive: 29.1 µM [falling, single point]

Q: For `COc1ccccc1N1CCN(C(=O)C(=O)c2cn(CC(=O)N3CCOCC3)c3ccccc23)CC1`, which Potency is on record?
A: inconclusive: 7.31 µM [activator, partial curve]

Q: For `CC1(c2ccc3ccccc3c2)NC(=O)N(CC(=O)N2CCN(S(=O)(=O)c3ccccc3F)CC2)C1=O` (configuration not stated), which lipid storage change, negative = inhibition is on record?
A: inconclusive: 0.213%

Q: Which lipid storage change, negative = inhibition does the source give for `Cc1cc(/C=C(/C#N)C(=O)O)c(C)n1-c1cccc2ccccc12` here?
A: inconclusive: -10.2%

Q: Which lipid storage change, negative = inhibition does the source give for `COc1ccc(CN2CCC(=O)N([C@H](CO)CC(C)C)CC2)cc1OC` here?
A: inconclusive: 23.3%

Q: For `Cc1ccc(-c2nc(CC(=O)Nc3cccc(S(=O)(=O)NC4=NCCC4)c3)cs2)cc1`, which lipid storage change, negative = inhibition is on record?
A: inconclusive: -13.9%

Q: Which lipid storage change, negative = inhibition does the source give for `Cc1[nH]c2ccccc2c1C(=O)C(=O)NCC1CCCO1` (configuration not stated) here?
A: inconclusive: -7.46%

Q: With `CC(C)(C)NC(=O)COC(=O)CCC(=O)c1cccs1` as the molecule, how does the Potency read?
A: inconclusive: 5.8 µM [cytotoxic, full curve]

Q: With `COc1ccc(S(=O)(=O)NCc2nc3nc(C)cc(C)n3n2)cc1OC` as the molecule, how does the lipid storage change, negative = inhibition read?
A: inconclusive: 45.7%

Q: With `COc1cc(C)c(Br)cc1S(=O)(=O)NCCCN1CCOCC1` as the molecule, how does the lipid storage change, negative = inhibition read?
A: inconclusive: 4.93%

Q: With `COc1cccc(-c2cc(C(=O)Nc3cccnc3)c3ccccc3n2)c1` as the molecule, how does the Potency read?
A: active: 8.2 µM

Q: For `COc1cccc(-c2nn3c(-c4ccco4)nnc3s2)c1`, which lipid storage change, negative = inhibition is on record?
A: inconclusive: 18.9%

Q: With `CCN(CC)C(=O)COc1cccc2ccccc12` as the molecule, how does the lipid storage change, negative = inhibition read?
A: inconclusive: 24.4%

Q: For `O=C(Nc1ccc(Cl)cc1)c1sccc1-n1cccc1`, which lipid storage change, negative = inhibition is on record?
A: inconclusive: 17%

Q: With `CC1CN(C(=O)c2cc([N+](=O)[O-])cc([N+](=O)[O-])c2)CC(C)O1` (configuration not stated) as the molecule, how does the lipid storage change, negative = inhibition read?
A: inconclusive: -0.221%

Q: Which lipid storage change, negative = inhibition does the source give for `Cc1ccc(NC(=O)c2ccc(C)c(NC3=NC4CS(=O)(=O)CC4S3)c2)cc1C` (configuration not stated) here?
A: inconclusive: 0.48%

Q: For `Nc1cccc(NC(=O)CN2CCOCC2)c1`, which lipid storage change, negative = inhibition is on record?
A: inconclusive: 31.5%

Q: For `C[C@@]12C(=O)Nc3cc(Cl)ccc3C(=O)N1[C@H]1c3ccccc3OC[C@@H]1[C@@H]2c1ccccc1`, which lipid storage change, negative = inhibition is on record?
A: inconclusive: -34.8%

Q: For `CC(Sc1nnc(CNc2cccc3ccccc23)n1-c1ccccc1)C(=O)N/N=C/c1ccco1` (configuration not stated), which lipid storage change, negative = inhibition is on record?
A: inconclusive: 14%

Q: Which lipid storage change, negative = inhibition does the source give for `Cn1c(SCC(=O)Nc2ccccc2F)nnc1C1CCCCC1` here?
A: inconclusive: 51.8%

Q: With `O=C(CN(C(=O)CNS(=O)(=O)c1ccc(F)cc1)c1cccc(F)c1)NCC1CCCO1` (configuration not stated) as the molecule, how does the lipid storage change, negative = inhibition read?
A: inconclusive: 39.8%

Q: Which lipid storage change, negative = inhibition does the source give for `COc1ccc(C2/C(=C(/O)c3ccccc3)C(=O)C(=O)N2CCCN2CCOCC2)cc1` (configuration not stated) here?
A: inconclusive: -4.99%

Q: Which lipid storage change, negative = inhibition does the source give for `CC(C)CC1(C(=O)NCCc2c[nH]c3ccccc23)C=CCN1C(=O)c1ccccc1` (configuration not stated) here?
A: inconclusive: -2.04%

Q: With `O=C(O)CCN(CCC(=O)O)c1nnc(SCc2ccccc2)s1` as the molecule, how does the lipid storage change, negative = inhibition read?
A: inconclusive: 36%

Q: Which lipid storage change, negative = inhibition does the source give for `NC(=O)c1ccsc1NC(=O)CSc1nnc(Nc2ccccc2)s1` here?
A: inconclusive: -25.6%

Q: Which Potency does the source give for `C/C(=N\NC(=O)c1ccc(C)cc1)c1c(C)[nH]n(-c2ccccc2)c1=O` here?
A: active: 9.2 µM

Q: For `S=c1[nH]nc(-c2ccco2)n1/N=C/c1c(Cl)cccc1Cl`, which lipid storage change, negative = inhibition is on record?
A: inconclusive: -22.7%

Q: With `CCC(=O)N1CCc2cc(S(=O)(=O)NCCC(=O)Nc3ccc(OC)cc3)ccc21` as the molecule, how does the lipid storage change, negative = inhibition read?
A: inconclusive: 276%

Q: With `CN(Cc1ccccc1)c1oc(COc2ccccc2F)nc1C#N` as the molecule, how does the lipid storage change, negative = inhibition read?
A: inconclusive: 11.7%

Q: Which lipid storage change, negative = inhibition does the source give for `CN(C)S(=O)(=O)c1ccc(F)c(C(=O)Nc2ccccc2C(=O)NC2CC2)c1` here?
A: inconclusive: -16.6%

Q: For `COc1cc(N2CCCC2)c(OC)cc1/C=C(/C#N)c1ccc(F)cc1`, which Potency is on record?
A: inconclusive: 20.6 µM [falling, single point]

Q: For `CC(C)c1nnc(SCC(=O)N2CCc3ccccc32)n1N`, which lipid storage change, negative = inhibition is on record?
A: inconclusive: -47.6%

Q: For `CCOC(=O)C1CCCN(Cc2ccc(OCc3ccccc3)c(OC)c2)C1` (configuration not stated), which Potency is on record?
A: inconclusive: 4.11 µM [activator, single point]

Q: With `Cc1ccc(OCc2nc(-c3ccccn3)no2)cc1` as the molecule, how does the Potency read?
A: inconclusive: 6.51 µM [falling, single point]

Q: For `COc1ccc2cc3[n+](cc2c1OC)CCc1cc2c(cc1-3)OCO2`, which Potency is on record?
A: inconclusive: 0.082 µM [activator, full curve]

Q: With `CCOC(=O)C1C(=O)C=C(Nc2ccccc2F)CC1c1ccccc1` (configuration not stated) as the molecule, how does the Potency read?
A: inconclusive: 32.6 µM [activator, partial curve]

Q: For `CNC(=O)NC(=O)COc1ccc2oc3c(c2c1)CCCC3`, which Potency is on record?
A: active: 0.58 µM

Q: Which “lipid storage change, negative = inhibition” value does the source give for `O=C(c1ccncc1)N1CCN(C(=O)c2cccc3ccccc23)CC1` here?
A: inactive: 13.3%

Q: With `Cc1ccc(C(=O)Nc2c(C)n(C)n(-c3ccccc3)c2=O)cc1S(=O)(=O)N1CCOCC1` as the molecule, how does the lipid storage change, negative = inhibition read?
A: inconclusive: 9.28%

Q: With `Oc1ccc(Cl)cc1CNc1ccccn1` as the molecule, how does the Potency read?
A: inconclusive: 25.9 µM [activator, partial curve, poor fit]

Q: Which Potency does the source give for `COc1cc(C(=O)Nc2ccc(-c3nc4cc(C)ccc4o3)c(O)c2)cc(OC)c1OC` here?
A: inconclusive: 23.1 µM [falling, partial curve]

Q: Which lipid storage change, negative = inhibition does the source give for `C=C(C)CSc1nc2ccccc2[nH]1` here?
A: inconclusive: -0.168%

Q: For `CCOC(=O)c1c(NC(C)=O)sc2c(OC)c(Br)ccc12`, which Potency is on record?
A: inconclusive: 5.17 µM [activator, partial curve]

Q: Which Potency does the source give for `CCc1ccc(C(C)NC(=O)c2ncn[nH]2)cc1` (configuration not stated) here?
A: inconclusive: 0.259 µM [activator, full curve]

Q: With `CC(C)C(OC(=O)c1cccs1)C(=O)NCc1ccc2c(c1)OCO2` (configuration not stated) as the molecule, how does the Potency read?
A: inconclusive: 18.4 µM [falling, single point]

Q: Which lipid storage change, negative = inhibition does the source give for `COc1ccccc1/C=N/N1CCN(c2ccc(Cl)cc2)CC1` here?
A: inconclusive: -40.9%

Q: Which lipid storage change, negative = inhibition does the source give for `S=c1[nH]nc(-c2ccncc2)n1/N=C/c1cccc(Cl)c1` here?
A: inconclusive: 17.2%

Q: Which lipid storage change, negative = inhibition does the source give for `COc1ccccc1NC(=O)C(Cc1ccc(Cl)cc1)c1nn[nH]n1` (configuration not stated) here?
A: inconclusive: 6.81%

Q: For `O=C(Cc1ccccc1)NN1C(=O)C2C3C=CC([C@@H]2C1=O)C31CC1` (some centres not stated), which “lipid storage change, negative = inhibition” value is on record?
A: inactive: -2.59%

Q: With `COc1cc(C(=O)NCC(=O)n2nc(C)cc2C)cc(OC)c1OC` as the molecule, how does the Potency read?
A: inconclusive: 32.6 µM [falling, single point]

Q: Which lipid storage change, negative = inhibition does the source give for `S=C(N/N=C/c1ccc2ncccc2c1)Nc1cccnc1` here?
A: inconclusive: 10.2%

Q: With `O=C(CN1CCCN(S(=O)(=O)c2ccc(F)cc2)CC1)Nc1cccc(F)c1` as the molecule, how does the Potency read?
A: inconclusive: 29.1 µM [falling, single point]

Q: With `CC(=O)N1CCN(S(=O)(=O)c2cccc(C(=O)Nc3ccc4c(c3)OCO4)c2)CC1` as the molecule, how does the lipid storage change, negative = inhibition read?
A: inconclusive: 47.7%

Q: Which lipid storage change, negative = inhibition does the source give for `CN(C)C(CNC(=O)c1cccc(OC(F)F)c1)c1ccco1` (configuration not stated) here?
A: inconclusive: 33.5%
